23 targets from the supplement of paper PMC10849652 can be followed below.

Amino acid sequences for entries named in this document (tags omitted). A change or cut given only in a name is not applied to a line headed by its entry.
UniProt Q9Y312: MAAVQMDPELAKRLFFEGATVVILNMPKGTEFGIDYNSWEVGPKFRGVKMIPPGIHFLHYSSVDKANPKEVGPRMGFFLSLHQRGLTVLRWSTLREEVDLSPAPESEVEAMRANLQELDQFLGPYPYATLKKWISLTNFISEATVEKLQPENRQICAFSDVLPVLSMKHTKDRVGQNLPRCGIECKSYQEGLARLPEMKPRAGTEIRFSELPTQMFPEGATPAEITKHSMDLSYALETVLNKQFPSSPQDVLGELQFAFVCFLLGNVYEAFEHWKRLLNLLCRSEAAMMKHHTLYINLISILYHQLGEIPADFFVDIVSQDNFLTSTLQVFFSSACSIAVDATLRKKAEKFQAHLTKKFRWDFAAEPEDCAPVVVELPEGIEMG
UniProt Q53FZ2: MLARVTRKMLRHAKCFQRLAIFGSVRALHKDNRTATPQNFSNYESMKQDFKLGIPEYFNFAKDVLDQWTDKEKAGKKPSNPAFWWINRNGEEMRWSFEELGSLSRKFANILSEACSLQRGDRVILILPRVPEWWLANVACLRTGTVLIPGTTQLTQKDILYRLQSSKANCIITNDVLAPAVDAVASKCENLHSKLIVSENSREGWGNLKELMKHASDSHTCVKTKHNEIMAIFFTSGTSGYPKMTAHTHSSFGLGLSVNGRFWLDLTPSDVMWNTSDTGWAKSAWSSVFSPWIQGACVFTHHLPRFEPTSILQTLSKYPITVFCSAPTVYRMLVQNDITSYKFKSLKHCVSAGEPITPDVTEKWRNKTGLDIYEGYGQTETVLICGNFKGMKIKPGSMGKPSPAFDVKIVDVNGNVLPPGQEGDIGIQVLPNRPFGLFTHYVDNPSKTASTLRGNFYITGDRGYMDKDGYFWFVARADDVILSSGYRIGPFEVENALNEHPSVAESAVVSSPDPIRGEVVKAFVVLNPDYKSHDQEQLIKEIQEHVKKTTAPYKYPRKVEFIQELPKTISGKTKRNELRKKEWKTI
UniProt Q13685: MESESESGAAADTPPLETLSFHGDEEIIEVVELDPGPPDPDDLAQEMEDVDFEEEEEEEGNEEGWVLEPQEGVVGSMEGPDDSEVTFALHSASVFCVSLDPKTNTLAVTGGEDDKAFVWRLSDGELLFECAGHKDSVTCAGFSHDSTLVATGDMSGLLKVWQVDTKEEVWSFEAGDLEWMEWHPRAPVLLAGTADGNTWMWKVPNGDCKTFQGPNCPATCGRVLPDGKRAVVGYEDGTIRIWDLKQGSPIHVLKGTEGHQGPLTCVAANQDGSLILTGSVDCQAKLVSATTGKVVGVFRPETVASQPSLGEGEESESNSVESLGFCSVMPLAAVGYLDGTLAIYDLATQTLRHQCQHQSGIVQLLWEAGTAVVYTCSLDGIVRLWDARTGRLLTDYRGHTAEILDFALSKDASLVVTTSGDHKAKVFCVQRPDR
UniProt O60488: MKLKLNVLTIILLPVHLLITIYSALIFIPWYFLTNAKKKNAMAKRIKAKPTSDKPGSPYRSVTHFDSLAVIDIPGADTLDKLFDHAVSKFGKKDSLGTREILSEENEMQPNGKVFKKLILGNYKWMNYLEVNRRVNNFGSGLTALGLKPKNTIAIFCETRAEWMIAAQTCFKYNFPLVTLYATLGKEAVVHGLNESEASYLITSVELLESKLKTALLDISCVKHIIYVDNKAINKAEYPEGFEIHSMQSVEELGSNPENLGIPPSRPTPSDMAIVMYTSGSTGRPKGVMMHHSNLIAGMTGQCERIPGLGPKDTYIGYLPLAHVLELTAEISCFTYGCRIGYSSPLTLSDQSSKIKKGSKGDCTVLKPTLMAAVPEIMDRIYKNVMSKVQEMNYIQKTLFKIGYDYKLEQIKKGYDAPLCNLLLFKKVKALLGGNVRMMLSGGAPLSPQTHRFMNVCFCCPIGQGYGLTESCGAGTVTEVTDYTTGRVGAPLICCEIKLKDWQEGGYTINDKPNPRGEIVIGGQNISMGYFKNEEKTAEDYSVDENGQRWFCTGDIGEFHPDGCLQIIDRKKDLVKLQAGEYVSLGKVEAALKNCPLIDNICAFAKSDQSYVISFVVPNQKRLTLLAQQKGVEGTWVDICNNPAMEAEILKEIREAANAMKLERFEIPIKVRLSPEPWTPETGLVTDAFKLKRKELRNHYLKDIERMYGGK
UniProt Q96GS6: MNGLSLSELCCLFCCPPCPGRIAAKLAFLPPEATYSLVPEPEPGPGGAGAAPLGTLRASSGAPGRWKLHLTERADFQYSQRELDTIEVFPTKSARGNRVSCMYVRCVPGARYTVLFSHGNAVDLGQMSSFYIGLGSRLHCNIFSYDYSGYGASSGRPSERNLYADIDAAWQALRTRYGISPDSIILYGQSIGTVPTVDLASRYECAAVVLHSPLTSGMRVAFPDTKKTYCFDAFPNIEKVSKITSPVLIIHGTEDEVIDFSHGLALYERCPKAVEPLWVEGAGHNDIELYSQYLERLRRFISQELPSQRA
UniProt P42025, whole entry, looked up: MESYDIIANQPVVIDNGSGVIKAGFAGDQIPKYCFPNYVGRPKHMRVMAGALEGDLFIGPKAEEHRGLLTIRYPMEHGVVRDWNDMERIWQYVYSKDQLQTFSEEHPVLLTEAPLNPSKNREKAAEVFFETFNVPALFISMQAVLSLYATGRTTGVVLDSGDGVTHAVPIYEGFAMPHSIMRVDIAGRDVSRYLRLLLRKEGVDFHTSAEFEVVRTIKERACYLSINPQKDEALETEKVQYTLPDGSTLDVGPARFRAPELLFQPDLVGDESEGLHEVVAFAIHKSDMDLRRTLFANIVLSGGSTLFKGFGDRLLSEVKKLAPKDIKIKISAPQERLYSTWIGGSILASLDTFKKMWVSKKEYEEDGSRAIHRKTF
UniProt O15440: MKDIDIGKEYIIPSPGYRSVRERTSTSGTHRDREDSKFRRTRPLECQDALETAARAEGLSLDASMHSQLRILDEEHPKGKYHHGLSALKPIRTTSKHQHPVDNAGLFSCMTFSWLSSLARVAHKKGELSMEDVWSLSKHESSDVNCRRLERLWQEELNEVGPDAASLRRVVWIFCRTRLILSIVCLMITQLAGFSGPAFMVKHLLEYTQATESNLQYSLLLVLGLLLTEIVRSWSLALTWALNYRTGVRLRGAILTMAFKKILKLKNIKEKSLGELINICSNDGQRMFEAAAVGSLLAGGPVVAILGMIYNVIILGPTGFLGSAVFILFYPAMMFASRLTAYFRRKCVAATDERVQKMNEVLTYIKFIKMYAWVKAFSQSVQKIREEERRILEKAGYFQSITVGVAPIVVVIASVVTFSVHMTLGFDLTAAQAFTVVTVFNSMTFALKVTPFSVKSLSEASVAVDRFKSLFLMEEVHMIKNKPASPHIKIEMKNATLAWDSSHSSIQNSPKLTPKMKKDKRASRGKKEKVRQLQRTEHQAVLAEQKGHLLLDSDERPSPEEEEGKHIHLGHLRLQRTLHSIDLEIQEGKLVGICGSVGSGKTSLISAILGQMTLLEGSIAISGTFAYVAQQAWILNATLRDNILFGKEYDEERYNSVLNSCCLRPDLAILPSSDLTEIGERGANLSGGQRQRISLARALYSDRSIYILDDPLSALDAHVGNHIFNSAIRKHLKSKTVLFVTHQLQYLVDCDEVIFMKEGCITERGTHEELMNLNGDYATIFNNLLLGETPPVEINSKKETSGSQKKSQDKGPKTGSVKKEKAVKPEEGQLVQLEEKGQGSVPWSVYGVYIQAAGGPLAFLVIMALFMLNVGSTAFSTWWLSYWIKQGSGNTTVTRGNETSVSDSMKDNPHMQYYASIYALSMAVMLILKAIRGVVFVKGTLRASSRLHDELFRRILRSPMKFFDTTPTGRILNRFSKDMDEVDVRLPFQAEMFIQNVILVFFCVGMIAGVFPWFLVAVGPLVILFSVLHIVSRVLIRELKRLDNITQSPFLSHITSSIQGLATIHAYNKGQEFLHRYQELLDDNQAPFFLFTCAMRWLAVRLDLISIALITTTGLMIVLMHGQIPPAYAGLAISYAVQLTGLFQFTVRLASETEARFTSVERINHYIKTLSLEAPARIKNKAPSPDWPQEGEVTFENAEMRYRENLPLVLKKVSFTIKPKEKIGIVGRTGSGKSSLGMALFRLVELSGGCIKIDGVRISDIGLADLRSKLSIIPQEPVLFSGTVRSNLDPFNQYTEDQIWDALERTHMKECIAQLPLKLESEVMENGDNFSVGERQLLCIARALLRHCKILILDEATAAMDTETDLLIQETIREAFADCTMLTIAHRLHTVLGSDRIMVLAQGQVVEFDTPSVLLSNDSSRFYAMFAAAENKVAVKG
UniProt O95573: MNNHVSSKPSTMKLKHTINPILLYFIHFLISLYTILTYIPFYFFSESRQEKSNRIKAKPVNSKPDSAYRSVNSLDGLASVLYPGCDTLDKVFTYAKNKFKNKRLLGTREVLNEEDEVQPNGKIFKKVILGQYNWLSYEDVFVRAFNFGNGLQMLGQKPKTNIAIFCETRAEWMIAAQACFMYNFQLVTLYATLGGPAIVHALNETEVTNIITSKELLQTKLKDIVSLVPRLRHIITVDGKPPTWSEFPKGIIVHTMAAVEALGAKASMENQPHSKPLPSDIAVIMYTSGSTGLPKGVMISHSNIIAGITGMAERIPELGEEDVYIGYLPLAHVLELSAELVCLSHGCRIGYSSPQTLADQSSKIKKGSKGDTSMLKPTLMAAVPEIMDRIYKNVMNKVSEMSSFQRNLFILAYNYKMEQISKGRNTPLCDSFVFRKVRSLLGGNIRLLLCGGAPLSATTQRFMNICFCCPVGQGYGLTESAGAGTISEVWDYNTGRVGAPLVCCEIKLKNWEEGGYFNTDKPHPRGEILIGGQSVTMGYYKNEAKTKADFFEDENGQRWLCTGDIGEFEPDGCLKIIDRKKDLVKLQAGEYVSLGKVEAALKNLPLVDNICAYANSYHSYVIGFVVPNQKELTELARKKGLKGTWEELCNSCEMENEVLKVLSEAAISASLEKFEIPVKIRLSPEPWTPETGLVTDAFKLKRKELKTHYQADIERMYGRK
UniProt Q9NP58: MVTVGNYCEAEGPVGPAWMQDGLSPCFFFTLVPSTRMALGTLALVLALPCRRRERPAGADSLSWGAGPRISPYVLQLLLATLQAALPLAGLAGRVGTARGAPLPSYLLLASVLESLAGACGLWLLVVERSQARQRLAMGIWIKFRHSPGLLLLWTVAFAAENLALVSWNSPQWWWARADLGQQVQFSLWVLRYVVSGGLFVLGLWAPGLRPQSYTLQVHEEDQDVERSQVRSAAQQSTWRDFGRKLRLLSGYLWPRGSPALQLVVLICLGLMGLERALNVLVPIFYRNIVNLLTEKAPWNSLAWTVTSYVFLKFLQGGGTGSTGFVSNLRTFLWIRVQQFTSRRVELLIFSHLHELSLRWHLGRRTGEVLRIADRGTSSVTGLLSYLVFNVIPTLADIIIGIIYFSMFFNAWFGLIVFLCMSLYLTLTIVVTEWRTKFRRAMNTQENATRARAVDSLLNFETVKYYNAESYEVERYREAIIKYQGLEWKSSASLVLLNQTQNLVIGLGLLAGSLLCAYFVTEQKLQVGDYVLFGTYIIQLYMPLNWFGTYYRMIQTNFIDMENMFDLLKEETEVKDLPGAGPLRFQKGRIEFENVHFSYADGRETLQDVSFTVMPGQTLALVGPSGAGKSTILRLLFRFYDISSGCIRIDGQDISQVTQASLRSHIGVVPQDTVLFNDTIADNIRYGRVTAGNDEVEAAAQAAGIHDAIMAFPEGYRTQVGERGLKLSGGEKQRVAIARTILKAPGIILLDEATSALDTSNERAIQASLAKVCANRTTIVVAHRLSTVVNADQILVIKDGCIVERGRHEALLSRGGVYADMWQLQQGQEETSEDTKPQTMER
UniProt Q99798: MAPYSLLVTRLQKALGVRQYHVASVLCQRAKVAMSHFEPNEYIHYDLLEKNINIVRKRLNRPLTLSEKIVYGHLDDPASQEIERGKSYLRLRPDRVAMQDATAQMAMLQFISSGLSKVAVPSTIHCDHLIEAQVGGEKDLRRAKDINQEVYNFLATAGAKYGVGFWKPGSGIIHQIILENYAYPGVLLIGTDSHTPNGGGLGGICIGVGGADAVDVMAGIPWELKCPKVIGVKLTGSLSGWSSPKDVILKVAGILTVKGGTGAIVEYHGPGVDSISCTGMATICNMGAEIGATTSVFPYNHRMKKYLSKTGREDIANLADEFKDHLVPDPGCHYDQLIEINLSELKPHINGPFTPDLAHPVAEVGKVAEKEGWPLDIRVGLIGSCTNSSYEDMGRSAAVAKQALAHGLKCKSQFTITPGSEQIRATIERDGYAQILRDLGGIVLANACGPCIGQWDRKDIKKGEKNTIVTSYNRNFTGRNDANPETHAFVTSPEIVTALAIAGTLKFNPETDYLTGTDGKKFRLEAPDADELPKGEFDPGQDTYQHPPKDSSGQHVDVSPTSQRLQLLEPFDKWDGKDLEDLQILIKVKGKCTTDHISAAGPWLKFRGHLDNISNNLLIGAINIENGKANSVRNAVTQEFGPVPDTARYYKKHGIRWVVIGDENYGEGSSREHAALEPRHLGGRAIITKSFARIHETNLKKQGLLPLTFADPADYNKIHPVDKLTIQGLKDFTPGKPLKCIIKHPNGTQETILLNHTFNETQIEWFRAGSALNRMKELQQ

The other results are listed elsewhere or left out.

Compound in the test: COC(=O)N[C@@H](C)CNc1nccc(-c2cn(C(C)C)nc2-c2cc(Cl)cc(NS(C)(=O)=O)c2F)n1 [encorafenib]
Kind of test: log2 fold change, soluble protein after heating vs DMSO (PISA); higher = thermal stabilisation; K562 cells, 10 uM, 30 min; active = over 0.2 and 3.5 SD of the protein, either way, in both replicates (recomputed). The essentials: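 Values are thermal stability changes relative to control samples and are taken from duplicates. They are stated as log2 fold changes. Before quantification by TMTpro 16plex LC-MS/MS with equalised channel sums, K562 cells at 2×10^6 cells/mL were treated with 10 μM compound for 30 min, heated in aliquots for 3 min across 48°C-58°C, pooled, extracted in PBS with 0.5% NP-40 at 4°C, and centrifuged at 21,000xg for 90 min to give the soluble supernatant.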
As to AAK1 (UniProt Q2M2I8), the log2 fold change is inactive: -0.047.
For ADAMTS5 (UniProt Q9UNA0), the log2 fold change is inactive: -0.136.
As to ABHD13 (UniProt Q7L211), the log2 fold change is inactive: 0.046.
For ACSL1 (UniProt P33121), the log2 fold change is inactive: 0.031.
Take ABHD16A (UniProt O95870): the log2 fold change is inactive: -0.05.
Turning to ACP1 isoform 2 (UniProt P24666), the log2 fold change is inactive: 0.064.
For AAR2 (UniProt Q9Y312), the log2 fold change was inactive: -0.029.
ACSM3 (UniProt Q53FZ2): the log2 fold change is inactive: 0.021.
Next, AAMP (UniProt Q13685): inactive: -0.016; ACSL4 (UniProt O60488): inactive: 0.094; ABHD17A isoform 2 (UniProt Q96GS6): inactive: 0.104.
With ACAP2 (UniProt Q15057) the figure was inactive: 0.062; with ACTR1B (UniProt P42025), inactive: -0.048; with ACP1 (UniProt P24666), inactive: 0.035.
As to ADAD1 (UniProt Q96M93), the log2 fold change is inactive: 0.056.
Next, ABCC5 (UniProt O15440): inactive: -0.039; ACSL3 (UniProt O95573): inactive: 0.008; ADAMTS13 (UniProt Q76LX8): inactive: -0.054.
AAGAB (UniProt Q6PD74): the log2 fold change was inactive: 0.045.
Turning to ACTBL2 (UniProt Q562R1), the log2 fold change was inactive: 0.239.
With ABCB6 (UniProt Q9NP58) the figure was inactive: 0.055; with ABCA3 (UniProt Q99758), inactive: 0.192.
Consider ACO2 (UniProt Q99798), for which the log2 fold change is inactive: 0.027.
